Laboratory results reported in PMC9385671 (Nature Communications, 2022).
No dose or concentration is given here for some results.

Tested on: E. coli cells
Experiment: FRAP of FtsZ architectures in live E. coli
Type: cell-based

| SMILES | FRAP normalized fluorescence intensity, ave (time 0 s (before bleaching)) | FRAP normalized fluorescence intensity, ave (time 4 s) | FRAP normalized fluorescence intensity, ave (time 7 s) | FRAP normalized fluorescence intensity, ave (time 10 s) | FRAP normalized fluorescence intensity, ave (time 13 s) | FRAP normalized fluorescence intensity, ave (time 16 s) | FRAP normalized fluorescence intensity, ave (time 19 s) | FRAP normalized fluorescence intensity, ave (time 22 s) | FRAP normalized fluorescence intensity, ave (time 25 s) | FRAP normalized fluorescence intensity, ave (time 28 s) | FRAP normalized fluorescence intensity, ave (time 31 s) | FRAP normalized fluorescence intensity, ave (time 41 s) | FRAP normalized fluorescence intensity, ave (time 51 s) | FRAP normalized fluorescence intensity, ave (time 61 s) |
| --- | --- | --- | --- | --- | --- | --- | --- | --- | --- | --- | --- | --- | --- | --- |
| N[C@@H](Cc1cc(Br)c(O)c(Br)c1)C(=O)O [Br2Y, 3,5-dibromo-L-tyrosine] | 1 | 0 | 0.06572 | 0.1143 | 0.1802 | 0.197 | 0.2826 | 0.3492 | 0.3242 | 0.3861 | 0.3679 | 0.4294 | 0.4355 | 0.4333 |
| N[C@@H](Cc1ccc(O)c(Br)c1)C(=O)O [BrY, 3-bromo-L-tyrosine] | 1 | 0 | 0.08518 | 0.09731 | 0.1281 | 0.2506 | 0.3351 | 0.3159 | 0.3109 | 0.3745 | 0.3355 | 0.4046 | 0.4944 | 0.3299 |
| N[C@@H](Cc1cc(Cl)c(O)c(Cl)c1)C(=O)O [Cl2Y, 3,5-dichloro-L-tyrosine] | 1 | 0 | 0.02882 | 0.1152 | 0.1881 | 0.2426 | 0.297 | 0.2634 | 0.3509 | 0.2997 | 0.2987 | 0.4133 | 0.3766 | 0.3279 |
| N[C@@H](Cc1ccc(O)c(Cl)c1)C(=O)O [ClY, 3-chloro-L-tyrosine] | 1 | 0.00922 | 0.1022 | 0.2039 | 0.1824 | 0.3058 | 0.222 | 0.3336 | 0.3274 | 0.2994 | 0.3481 | 0.3157 | 0.3823 | 0.4263 |
| N[C@@H](Cc1cc(I)c(O)c(I)c1)C(=O)O [I2Y, 3,5-diiodo-L-tyrosine] | 1 | 0 | 0.1002 | 0.1692 | 0.2385 | 0.2802 | 0.3436 | 0.3275 | 0.3842 | 0.3331 | 0.3166 | 0.3667 | 0.3665 | 0.4045 |
| N[C@@H](Cc1ccc(O)c(I)c1)C(=O)O [IY, 3-iodo-L-tyrosine] | 1 | 0 | 0.05475 | 0.06598 | 0.1061 | 0.1239 | 0.1464 | 0.1453 | 0.1447 | 0.1966 | 0.1813 | 0.3012 | 0.3242 | 0.314 |
